In PMC11997338:
No constants are given. Whether binding was seen depends on the method and setting. In cells and extracts the contact can be indirect. Some entries that bind do so weakly or less than the wild type.

Target: T1, endogenous endoglin (ENG) of mouse dental papilla cells (mouse (endogenous in postnatal 2 mouse molars)) (UniProt Q63961)
T1 sequence: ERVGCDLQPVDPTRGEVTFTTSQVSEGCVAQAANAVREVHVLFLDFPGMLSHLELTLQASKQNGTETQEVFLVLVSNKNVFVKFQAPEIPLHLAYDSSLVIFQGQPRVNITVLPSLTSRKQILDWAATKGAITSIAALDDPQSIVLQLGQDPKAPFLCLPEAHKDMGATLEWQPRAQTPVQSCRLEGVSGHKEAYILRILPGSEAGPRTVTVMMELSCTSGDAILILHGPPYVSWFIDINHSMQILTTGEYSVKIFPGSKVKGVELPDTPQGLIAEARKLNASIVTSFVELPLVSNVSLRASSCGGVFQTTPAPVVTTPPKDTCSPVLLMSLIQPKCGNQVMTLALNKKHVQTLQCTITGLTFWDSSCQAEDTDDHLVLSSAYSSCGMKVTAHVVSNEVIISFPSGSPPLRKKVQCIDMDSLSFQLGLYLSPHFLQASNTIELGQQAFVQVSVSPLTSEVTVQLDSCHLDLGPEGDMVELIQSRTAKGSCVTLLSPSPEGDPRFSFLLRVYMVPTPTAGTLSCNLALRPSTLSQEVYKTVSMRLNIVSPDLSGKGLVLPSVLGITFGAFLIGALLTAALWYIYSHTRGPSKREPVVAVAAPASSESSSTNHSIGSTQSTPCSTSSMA
Experiment: proximity ligation; 5-μm sections of postnatal 2 mouse molars; anti-DSP and anti-ENG antibodies, rabbit and goat IgG as isotype controls; Duolink in situ PLA

B1: endogenous dentin sialoprotein (DSP) of mouse molars (protein, UniProt P97399 18-451)
chain: IPVPQLVPLERDIVENSVAVPLLTHPGTAAQNELSINSTTSNSNDSPDGSEIGEQVLSEDGYKRDGNGSESIHVGGKDFPTQPILVNEQGNTAEEHNDIETYGHDGVHARGENSTANGIRSQVGIVENAEEAESSVHGQAGQNTKSGGASDVSQNGDATLVQENEPPEASIKNSTNHEAGIHGSGVATHETTPQREGLGSENQGTEVTPSIGEDAGLDDTDGSPSGNGVEEDEDTGSGDGEGAEAGDGRESHDGTKGQGGQSHGGNTDHRGQSSVSTEDDDSKEQEGFPNGHNGDNSSEENGVEEGDSTQATQDKEKLSPKDTRDAEGGIISQSEACPSGKSQDQGIETEGPNKGNKSIITKESGKLSGSKDSNGHQGVELDKRNSPKQGESDKPQGTAEKSAAHSNLGHSRIGSSSNSDGHDSYEFDDESMQG
**Q.** With B1 as the binder, how does the binding read?
**A.** Its binding is “binds”.
